# Test results from PubChem BioAssay AID651768 (National Center for Advancing Translational Sciences (NCATS), 2012).
# By UniProt entry, the sequences of proteins in these tests, tags left out.
# UniProt Q14191, whole entry, looked up: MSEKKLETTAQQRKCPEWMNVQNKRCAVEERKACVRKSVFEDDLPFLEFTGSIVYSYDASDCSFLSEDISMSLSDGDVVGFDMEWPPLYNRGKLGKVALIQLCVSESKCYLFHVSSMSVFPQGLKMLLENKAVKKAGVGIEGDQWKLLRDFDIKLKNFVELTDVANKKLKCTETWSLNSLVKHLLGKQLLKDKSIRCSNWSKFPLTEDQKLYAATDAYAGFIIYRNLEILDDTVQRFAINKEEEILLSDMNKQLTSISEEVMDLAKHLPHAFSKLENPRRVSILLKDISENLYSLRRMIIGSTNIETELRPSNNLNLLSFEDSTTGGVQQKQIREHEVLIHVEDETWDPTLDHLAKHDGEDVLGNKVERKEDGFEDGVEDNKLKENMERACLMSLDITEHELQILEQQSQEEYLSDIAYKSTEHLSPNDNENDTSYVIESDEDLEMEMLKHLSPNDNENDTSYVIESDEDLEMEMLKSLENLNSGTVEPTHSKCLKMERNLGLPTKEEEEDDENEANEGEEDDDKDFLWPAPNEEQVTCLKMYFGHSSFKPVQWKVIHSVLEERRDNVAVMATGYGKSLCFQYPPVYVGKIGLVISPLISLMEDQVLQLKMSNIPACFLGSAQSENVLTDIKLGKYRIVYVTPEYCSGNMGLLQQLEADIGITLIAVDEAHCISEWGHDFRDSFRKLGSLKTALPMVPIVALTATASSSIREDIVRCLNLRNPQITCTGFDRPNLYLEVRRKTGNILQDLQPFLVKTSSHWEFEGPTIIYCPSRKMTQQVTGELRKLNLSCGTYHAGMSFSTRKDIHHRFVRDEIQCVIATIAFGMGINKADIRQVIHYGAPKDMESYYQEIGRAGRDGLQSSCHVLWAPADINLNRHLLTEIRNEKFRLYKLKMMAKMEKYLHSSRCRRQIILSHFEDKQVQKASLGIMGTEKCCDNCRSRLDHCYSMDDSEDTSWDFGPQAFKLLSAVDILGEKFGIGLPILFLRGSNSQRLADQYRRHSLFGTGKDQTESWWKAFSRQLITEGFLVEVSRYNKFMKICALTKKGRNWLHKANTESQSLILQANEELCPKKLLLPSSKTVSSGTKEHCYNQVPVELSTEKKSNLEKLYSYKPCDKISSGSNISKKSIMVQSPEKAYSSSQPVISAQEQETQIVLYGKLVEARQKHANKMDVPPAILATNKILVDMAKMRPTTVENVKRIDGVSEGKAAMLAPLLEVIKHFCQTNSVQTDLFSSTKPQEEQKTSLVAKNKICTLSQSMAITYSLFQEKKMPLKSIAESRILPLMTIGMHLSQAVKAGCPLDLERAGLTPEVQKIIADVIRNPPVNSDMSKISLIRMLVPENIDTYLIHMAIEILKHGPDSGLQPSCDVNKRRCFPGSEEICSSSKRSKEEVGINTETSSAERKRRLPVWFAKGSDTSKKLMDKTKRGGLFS
# In all, about 360,000 compounds went through this assay and about 1,700 (0.47%) were called active. The inconclusive results got no clear call from the source; some entries with a clear call stand among them for comparison. Calls come from the whole dose curve; as a rule, active = well fitted inhibition curve with a large enough effect; inconclusive = small, poorly fitted or top-dose-only effect; inactive = no such curve, though single readings can be large or run the other way. Where the call is inconclusive, the potency comes from a doubtful curve fit.
# Biological target: Bifunctional 3'-5' exonuclease/ATP-dependent helicase WRN (Homo sapiens) (UniProt Q14191)
# Assay: qHTS for Inhibitors of WRN Helicase; note: nearly all actives have a fitted effect of over 55% in size
# Conditions: WRN helicase unwinding, fluorescent forked duplex, kinetic; activity change, negative = inhibition: at 114 µM (top of the series) unless noted
# Description: Inhibition of DNA repair is proposed as a strategy for combating cancer. Synthetic lethality is an approach that exploits preexisting DNA repair deficiencies in certain tumors to develop inhibitors of DNA repair pathways that compensate for the tumor-associated DNA repair deficiency. Because helicases play critical roles in the DNA damage response and in DNA repair, particularly in actively dividing and replicating cells, characterization of synthetic lethal relationships of DNA helicases may be of value in developing improved anticancer treatment strategies; moreover, small molecules that specifically target a given DNA helicase may be useful for understanding its role in cellular nucleic acid metabolism. The goal of this project is to identify small molecule, non-covalent chemical inhibitors of the Werner syndrome (WS) helicase (WRN), which plays an important role in cell proliferation, the replication stress response, and DNA repair. […] The WRN gene product that is defective in the chromosomal instability disorder has DNA helicase and exonuclease activities and interacts with a number of nuclear proteins to maintain genomic stability. We will employ an optimized high-throughput screening assay that utilizes a fluorescence intensity modulation scheme with a fluorophore and quencher positioned near one another within a duplex deoxyoligonucleotide that contains a single forked structure. After a high-throughput screen of the ~350,000-member Molecular Libraries Small Molecule Repository (MLSMR) collection, followed by data analysis and hit selection, a panel of confirmatory, as well as secondary and ternary, assays will be employed to identify high-confidence WRN inhibitors. Structure-activity relationships will be investigated for the top candidate inhibitor series through medchem expansion. These are the results of the primary screening campaign against the MLSMR. NIH Chemical Genomics Center [NCGC] NIH Molecular Libraries Probe Centers Network [MLPCN] MLPCN Grant: MH096530 Assay Submitter (PI): Robert Brosh, National Institute of Aging
# Three muL of reagents (buffer in columns 3 and 4 as negative controls; WRN at 20 nM final concentration in columns 1 and 2 as positive controls; columns 5-48 as test reactions) will be dispensed into a 1536-well Greiner black plate via solenoid-valve based nanoliter dispensers. Compounds (23 nL each in columns 5-48) and control (23 nL each in column 2 as dose-response) will be transferred via a Kalypsys pintool equipped with a 1536-pin array. Plates will be incubated for 15 min at room temperature, and then 1 µL of substrate (100 nM forked duplex oligonucleotide and 2 mM ATP final concentrations) will be added to start reaction, and plate will be transferred into a ViewLux high-throughput CCD imager where reaction progress is measured in kinetic mode using standard red-fluorescence optics (excitation filter 525 nm, emission filter 598 nm).
# % is set by controls: 0 for no effect and ±100 for the full control effect; potency is the fitted concentration of half-maximal effect.
Compound,Potency,"activity change, negative = inhibition"
CN1C(=O)C(=Cc2ccc(OCC(=O)Nc3ccccc3)cc2)C(=O)N(C)C1=O,"inconclusive: 79.4 µM [inhibitor, partial curve]",–
O=C1NC(=O)N(c2ccccc2)C(=O)/C1=C/C=C/c1ccco1,"inconclusive: 50.1 µM [inhibitor, partial curve]",–
COC(=O)C1=C(C(=O)OC)C2OC1c1cc3ccccc3cc12,active: 39.8 µM,–
O=C1NC(=O)N(c2ccccc2)C(=O)/C1=C/c1ccc([N+](=O)[O-])s1,active: 28.2 µM,–
CC(C)CS(=O)(=O)C1=NN2C(=N)/C(=C\c3ccc(OC(=O)c4ccco4)cc3)C(=O)N=C2S1,"inconclusive: 50.1 µM [inhibitor, partial curve]",–
O=C1NC(=O)N(CCC2=CCCCC2)C(=O)/C1=C/c1cccs1,"inconclusive: 56.2 µM [inhibitor, partial curve]",–
NC(=O)C1CCN(/C=C2\C(=O)NC(=O)N(Cc3ccco3)C2=O)CC1,"inconclusive: 50.1 µM [inhibitor, partial curve]",–
Cc1cc(/C=C2\C(=O)NC(=O)N(c3ccc(Br)cc3)C2=O)c(C)n1-c1cc(C(=O)O)cc(C(=O)O)c1,active: 22.4 µM,–
COC(=O)C1=Nc2ccccc2/C1=C\c1c(O)n(C)c(=O)n(C)c1=O,–,inactive: -5.62%
COc1cc(/C=C2\C(=O)NC(=O)N(c3ccccc3)C2=O)c([N+](=O)[O-])cc1OC,"inconclusive: 50.1 µM [inhibitor, partial curve]",–
O=C(c1ccc(CNS(=O)(=O)c2ccccc2)cc1)N1CCC2(CC1)OCCO2,–,inactive: 3.19%
COc1ccc(-c2cc(NC=O)c3ncc(-c4cc(OC)c(OC)c(OC)c4)n3c2)c(OC)c1,"inconclusive: 79.4 µM [inhibitor, single point]",–
COc1ccc2c(c1OC)C(=O)OC2c1c(O)n(Cc2ccc(F)cc2)c(=O)[nH]c1=O (stereo not given),"inconclusive: 35.5 µM [inhibitor, partial curve]",–
O=C1NC(=O)N(Cc2cccs2)C(=O)/C1=C/c1ccc(N2CCOCC2)cc1,active: 56.2 µM,–
Cc1cc(N2CCCCC2)ccc1C=C1C(=O)N(C)C(=S)N(C)C1=O,–,inactive: -35.5% [at 57.1 µM]
COc1cc(/C=C/[N+](=O)[O-])ccc1OC(=O)c1cccnc1,–,inactive: 6%
O=C(O)CCn1cc(C=C2C(=O)NC(=S)NC2=O)c(-c2cccc(Cl)c2)n1,active: 44.7 µM,–
Cc1cccc(-n2c(O)c(C)c(=O)[nH]c2=S)c1,–,inactive: 1.65%
O=C1OCCC1C(=O)c1ccccc1 (stereo not given),–,inactive: 12.3%
COc1cc2c(ccc3c4cc(OC)c(OC)cc4c[n+](C)c23)cc1O,"inconclusive: 50.1 µM [inhibitor, partial curve]",–
COc1cc(N2CCOCC2)ccc1/C=C1\C(=O)NC(=O)N(Cc2ccc3c(c2)OCO3)C1=O,active: 50.1 µM,–
O=C1NC(=O)C(Sc2ccccc2[N+](=O)[O-])C(=O)N1,"inconclusive: 50.1 µM [inhibitor, partial curve]",–
COc1cc(/C=C2/C(=O)NC(=O)N(c3ccc(C)cc3)C2=O)cc(OC)c1OC,"inconclusive: 50.1 µM [inhibitor, partial curve]",–

# 13 entries from above, bar-delimited:
Compound | Potency | activity change, negative = inhibition
O=C(c1ccc(CNS(=O)(=O)c2ccccc2)cc1)N1CCC2(CC1)OCCO2 | – | inactive: 3.19%
COc1ccc(-c2cc(NC=O)c3ncc(-c4cc(OC)c(OC)c(OC)c4)n3c2)c(OC)c1 | inconclusive: 79.4 µM [inhibitor, single point] | –
COc1ccc2c(c1OC)C(=O)OC2c1c(O)n(Cc2ccc(F)cc2)c(=O)[nH]c1=O (stereo not given) | inconclusive: 35.5 µM [inhibitor, partial curve] | –
O=C1NC(=O)N(Cc2cccs2)C(=O)/C1=C/c1ccc(N2CCOCC2)cc1 | active: 56.2 µM | –
Cc1cc(N2CCCCC2)ccc1C=C1C(=O)N(C)C(=S)N(C)C1=O | – | inactive: -35.5% [at 57.1 µM]
COc1cc(/C=C/[N+](=O)[O-])ccc1OC(=O)c1cccnc1 | – | inactive: 6%
O=C(O)CCn1cc(C=C2C(=O)NC(=S)NC2=O)c(-c2cccc(Cl)c2)n1 | active: 44.7 µM | –
Cc1cccc(-n2c(O)c(C)c(=O)[nH]c2=S)c1 | – | inactive: 1.65%
O=C1OCCC1C(=O)c1ccccc1 (stereo not given) | – | inactive: 12.3%
COc1cc2c(ccc3c4cc(OC)c(OC)cc4c[n+](C)c23)cc1O | inconclusive: 50.1 µM [inhibitor, partial curve] | –
COc1cc(N2CCOCC2)ccc1/C=C1\C(=O)NC(=O)N(Cc2ccc3c(c2)OCO3)C1=O | active: 50.1 µM | –
O=C1NC(=O)C(Sc2ccccc2[N+](=O)[O-])C(=O)N1 | inconclusive: 50.1 µM [inhibitor, partial curve] | –
COc1cc(/C=C2/C(=O)NC(=O)N(c3ccc(C)cc3)C2=O)cc(OC)c1OC | inconclusive: 50.1 µM [inhibitor, partial curve] | –

# Remaining list, next part:

Compound,Potency,"activity change, negative = inhibition"
CC1CCN(C(=O)c2ccc(N3CC4CC(C3)c3cccc(=O)n3C4)c([N+](=O)[O-])c2)CC1 (stereo not given),–,inactive: -6.87%
CC(C)Cc1[nH]c(=O)c(C#N)c2c1CCC2,–,inactive: 7.35%
COc1ccc(/C=C2\C(=O)NC(=S)N(C)C2=O)cc1C,active: 20 µM,–
CN(C)c1ccc(/C=C/C=C/c2sc3ccccc3[n+]2C)cc1,"inconclusive: 70.8 µM [inhibitor, partial curve]",–
Cc1ccc(N2C(=O)NC(=O)/C(=C/c3ccoc3)C2=O)cc1,active: 31.6 µM,–
CN1C(=O)C(=Cc2ccccc2OCc2ccc(C(=O)O)cc2)C(=O)N(C)C1=O,"inconclusive: 39.8 µM [inhibitor, partial curve]",–
COc1ccc(N2C(=O)NC(=O)/C(=C/c3cccc(OC(=O)c4cccs4)c3)C2=O)cc1Cl,"inconclusive: 50.1 µM [inhibitor, partial curve]",–
O=C(Cc1cc(=O)oc2cc(O)ccc12)NN=Cc1ccc(N(CCCl)CCCl)cc1,–,inconclusive: -88.4% [inhibitor]
COc1cc(C(=S)N2CCOCC2)ccc1O,"inconclusive: 50.1 µM [inhibitor, partial curve]",–
COc1ccccc1N1C(=O)NC(=O)/C(=C/c2ccc3c4c(cccc24)CC3)C1=O,"inconclusive: 25.1 µM [inhibitor, single point]",–
COC(=O)C1=C(c2ccc(F)cc2OCc2ccccc2)C[C@@H]2CC[C@H]1N2C(=O)NCc1ccccc1,–,inactive: -5.55%
O=C1NC(=O)N(Cc2ccccc2)C(=O)/C1=C/C=C/c1ccco1,active: 50.1 µM,–
CNC(C(=O)c1ccccc1)C(OC(C)=O)c1cccc([N+](=O)[O-])c1 (stereo not given),"inconclusive: 3.55 µM [inhibitor, full curve, poor fit]",–
Cc1ccccc1-n1c(O)c(/C=C2/C(c3ccccc3)=Nc3ccccc32)c(=O)[nH]c1=O,"inconclusive: 79.4 µM [inhibitor, partial curve]",–
Cc1ccc(Sc2ccc(C=C3C(=O)N(C)C(=O)N(C)C3=O)o2)cc1,"inconclusive: 25.1 µM [inhibitor, full curve, poor fit]",–
COc1ccc(C=C2C(=O)NC(=S)NC2=O)cc1,active: 50.1 µM,–
Cc1cc(C)cc(N2C(=O)NC(=O)/C(=C\C=C\c3ccco3)C2=O)c1,active: 50.1 µM,–
CN1C(=O)/C(=C\c2ccc(Br)s2)C(=O)NC1=S,active: 17.8 µM,–
CCc1ccc(CN2CCN(Cc3ccc(SC)cc3)CC2)cc1,"inconclusive: 25.1 µM [inhibitor, single point]",–
COc1cc2c3c(c1OC)-c1cc(O)ccc1CC3NCC2 (stereo not given),–,inactive: -0.315%
O=C1NC(=O)N(c2ccccc2)C(=O)/C1=C\c1ccc([N+](=O)[O-])s1,active: 28.2 µM,–
O=c1[nH]c(=O)n(-c2ccc(F)cc2)c(O)c1/C=C1\C=Nc2ccccc21,"inconclusive: 79.4 µM [inhibitor, partial curve]",–
